Experimental data from US11169443B2, “Gap filling composition and pattern forming method using low molecular weight compound” (AZ Electronic Materials (Luxembourg) S.a.r.l., priority 2016, dated 2021).

What was measured:
[1] = Evaluation of application property (coatability); set-up: key: A: uniform coating was formed; B: coating was formed but contained plaque; C: coating was not formed
[2] = Pattern collapse rate, removal of composition by reduced pressure; details: 20% in IPA; reduced pressure 4.7 kPa/302 s
[3] = Evaluation of pattern collapse rate (composition removed by heating); details: heated at 250° C. for 180 seconds, relative to water
[4] = Evaluation of residue (film thickness after application and after bake)

CC(O)CCC(C)O (stereo not shown) [2,5-hexanediol]
coatability after dissolution into IPA ([1]; 20% in IPA, 1000 rpm): A | coatability after dissolution into IPA:water = 7:3 ([1]; 20% in IPA:water = 7:3, 1000 rpm): A | coatability after dissolution into PGME ([1]; 20% in PGME, 1000 rpm): A | coatability after dissolution into water ([1]; 20% in water, 1000 rpm): C | pattern collapse rate [2]: 0% | pattern collapse rate ([3]; 20% in IPA:water = 7:3): 4% | pattern collapse rate ([3]; 20% in IPA): 5% | post-bake thickness of residual film 110° C./60 s ([4]; 20% in IPA): 0 μm | post-bake thickness of residual film 130° C./60 s ([4]; 20% in IPA): 0 μm | film thickness ([4]; 20% in IPA, after application): 1.2 μm | post-bake thickness of residual film 110° C./60 s ([4]; 20% in IPA:water = 7:3): 0 μm | post-bake thickness of residual film 130° C./60 s ([4]; 20% in IPA:water = 7:3): 0 μm | film thickness ([4]; 20% in IPA:water = 7:3, after application): 1.2 μm | post-bake thickness of residual film 110° C./60 s ([4]; 20% in PGME): 0 μm | post-bake thickness of residual film 130° C./60 s ([4]; 20% in PGME): 0 μm | film thickness ([4]; 20% in PGME, after application): 1.2 μm
